PubChem BioAssay AID1224826 – NIAID, 2016

- Aim: 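Genes that change LPS-induced Tnf promoter activity in mouse macrophages when knocked down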 (primary screen)
- System: RAW264.7 G9 macrophages from mouse bearing reporters for p65 (GFP) and the Tnf promoter (mCherry)
- Reagents: siRNA pool against mouse genes, 100 nM
- Time to read-out: 16 h of LPS stimulation, after 2 days of siRNA transfection
- Treatment: bacterial lipopolysaccharide (Salmonella minnesota R595), 10 ng/ml
- Measured: 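Imaged Tnf reporter mCherry in nuclei, minus background, normalised per plate to the median and expressed as robust z-scores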
- Direction: Tnf reporter robust z-score: higher = stronger Tnf promoter reporter signal after LPS; Tnf reporter intensity: higher = stronger Tnf promoter reporter signal
- Hit rule: 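a well counts as active at a score of -1.3 or below (Tlr4 knock-down control median) or above 3 (raised signal); controls and wells holding fewer than 50 cells are excluded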
- Calls: active = Tnf reporter clearly lowered or raised; inactive = no clear change in Tnf reporter
This is an unselected part of about 17,000 deposited reagents. Over the whole deposit, about 1,110 (6.6%) are marked active. 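Active means lowered or raised reporter signal; replicate intensities are raw and not normalised per plate.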 Some reagents were tested in more than one well and are listed for each. Reagent sequences are not shown.

no.	Gene	Tnf reporter robust z-score	fewer than 50 cells in well	Tnf reporter intensity, replicate 1	Tnf reporter intensity, replicate 2	activity call
1	Thnsl2		fewer than 50 cells per well; well left out of calls	173	157	inactive
2	Nudt21	1.06	enough cells in well	300	187	inactive
3	Adcyap1	0.91	enough cells in well	252	262	inactive
4	Slc35e2	0.53	enough cells in well	169	216	inactive
5	Sys1	-0.28	enough cells in well	232	61.9	inactive
6	Med4	-0.81	enough cells in well	155	182	inactive
7	Selenoo	-1.28	enough cells in well	165	37.7	inactive
8	Tpra1	-0.18	enough cells in well	199	235	inactive
9	Pkhd1l1	0.83	enough cells in well	189	142	inactive
10	Prune2	0.39	enough cells in well	209	156	inactive
11	Ergic3		fewer than 50 cells per well; well left out of calls	117	113	inactive
12	2310067E19Rik	0.12	enough cells in well	161	38.4	inactive
13	Pkp4	0.4	enough cells in well	277	220	inactive
14	Btaf1	-0.37	enough cells in well	213	188	inactive
15	Cd177	0.33	enough cells in well	214	103	inactive
16	Actl6a		fewer than 50 cells per well; well left out of calls	74.7	29.1	inactive
17	Actl6a	-1.02	enough cells in well	98	103	inactive
18	Taf6l	-0.65	enough cells in well	178	107	inactive
19	Peli1	-1.3	enough cells in well	75.1	82.3	active
20	Arrdc3	-0.89	enough cells in well	131	104	inactive
21	Dennd1a	-0.2	enough cells in well	162	140	inactive
22	Exd1	1.12	enough cells in well	277	95.1	inactive
23	Cxcl10	0.32	enough cells in well	219	128	inactive
24	Xpc	-0.26	enough cells in well	187	236	inactive
25	Supt20	0.74	enough cells in well	309	264	inactive
26	Galnt7	-0.81	enough cells in well	139	126	inactive
27	Atf6	0.78	enough cells in well	154	245	inactive
28	Prkcg	0.35	enough cells in well	177	219	inactive
29	Cntd1	1.74	enough cells in well	299	150	inactive
30	Zfp94	-1.95	enough cells in well	80.4	77.2	active
31	Necap1	1.11	enough cells in well	288	118	inactive
32	2810408A11Rik	-0.21	enough cells in well	161	68.5	inactive
33	Oas3	0.41	enough cells in well	363	137	inactive
34	Srpk2		fewer than 50 cells per well; well left out of calls	257	622	inactive
35	Tas2r115	-0.17	enough cells in well	111	61	inactive
36	Stpg1		fewer than 50 cells per well; well left out of calls	216	47.8	inactive
37	Tmem80	1.18	enough cells in well	208	241	inactive
38	Cyp3a16	0.66	enough cells in well	231	210	inactive
39	Trap1	-0.01	enough cells in well	164	150	inactive
40	Tafa2	-1.05	enough cells in well	147	109	inactive

6 of these entries, set out differently:
Gene	Tnf reporter robust z-score	fewer than 50 cells in well	Tnf reporter intensity, replicate 1	Tnf reporter intensity, replicate 2	activity call
Tas2r115	-0.17	enough cells in well	111	61	inactive
Stpg1		fewer than 50 cells per well; well left out of calls	216	47.8	inactive
Tmem80	1.18	enough cells in well	208	241	inactive
Cyp3a16	0.66	enough cells in well	231	210	inactive
Trap1	-0.01	enough cells in well	164	150	inactive
Tafa2	-1.05	enough cells in well	147	109	inactive
